These are yes or no findings as the source states them, for the method shown. Binding seen in cells or lysates may run through a third protein. Some results given as binding are weak or reduced against the parent protein; the word gives no strength.
What was measured:
[1] = biological target: T1, promyelocytic leukemia protein (PML) (mouse (endogenous in neonatal mouse cardiac fibroblasts)) (UniProt Q60953); experiment: proximity ligation; Duolink in situ PLA on fixed, permeabilised neonatal mouse cardiac fibroblasts with anti-p53 and anti-PML antibodies; with or without TGF-β1
T1 sequence: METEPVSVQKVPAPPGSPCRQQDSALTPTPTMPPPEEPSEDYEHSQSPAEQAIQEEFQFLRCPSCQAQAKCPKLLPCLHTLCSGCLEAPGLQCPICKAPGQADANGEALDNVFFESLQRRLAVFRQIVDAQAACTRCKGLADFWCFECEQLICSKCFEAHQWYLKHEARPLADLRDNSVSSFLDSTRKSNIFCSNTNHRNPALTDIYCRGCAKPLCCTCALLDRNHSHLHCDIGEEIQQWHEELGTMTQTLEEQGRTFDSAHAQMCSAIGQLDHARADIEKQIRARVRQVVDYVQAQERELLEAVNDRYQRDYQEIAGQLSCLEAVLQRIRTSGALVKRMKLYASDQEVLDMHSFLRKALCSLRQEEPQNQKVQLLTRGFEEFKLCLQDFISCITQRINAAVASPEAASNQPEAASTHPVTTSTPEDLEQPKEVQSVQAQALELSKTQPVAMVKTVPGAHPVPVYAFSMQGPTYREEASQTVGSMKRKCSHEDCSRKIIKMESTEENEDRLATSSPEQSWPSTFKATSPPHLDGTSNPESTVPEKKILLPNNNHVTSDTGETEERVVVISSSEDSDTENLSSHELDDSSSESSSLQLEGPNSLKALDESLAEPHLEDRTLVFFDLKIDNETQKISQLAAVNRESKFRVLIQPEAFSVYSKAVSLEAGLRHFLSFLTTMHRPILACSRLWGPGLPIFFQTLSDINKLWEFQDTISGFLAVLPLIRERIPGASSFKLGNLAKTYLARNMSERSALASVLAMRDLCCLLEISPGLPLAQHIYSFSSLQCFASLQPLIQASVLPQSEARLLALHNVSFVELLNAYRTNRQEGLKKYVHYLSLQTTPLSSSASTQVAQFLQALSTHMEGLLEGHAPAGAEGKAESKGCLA

Amino acid sequences for entries named in this document (tags omitted).
UniProt P02340: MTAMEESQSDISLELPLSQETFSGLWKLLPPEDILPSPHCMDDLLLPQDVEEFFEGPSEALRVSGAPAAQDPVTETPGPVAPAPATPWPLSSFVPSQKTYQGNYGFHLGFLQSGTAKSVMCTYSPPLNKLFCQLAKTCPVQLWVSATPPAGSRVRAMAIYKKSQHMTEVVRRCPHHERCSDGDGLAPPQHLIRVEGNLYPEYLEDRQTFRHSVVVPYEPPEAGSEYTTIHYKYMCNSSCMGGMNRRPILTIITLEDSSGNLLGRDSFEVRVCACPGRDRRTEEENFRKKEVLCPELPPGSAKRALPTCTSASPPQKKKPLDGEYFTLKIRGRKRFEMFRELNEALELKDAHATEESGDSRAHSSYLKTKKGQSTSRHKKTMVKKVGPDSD

[2] = biological target: T1, promyelocytic leukemia protein (PML) (mouse (endogenous in neonatal mouse cardiac fibroblasts)); experiment: co-IP; whole-cell RIPA lysates of neonatal mouse cardiac fibroblasts, with or without TGF-β1; immunoprecipitated with anti-PML or anti-p53 antibody, captured on magnetic protein A/G beads, immunoblot for the other protein
[3] = biological target: T1, promyelocytic leukemia protein (PML) (mouse (endogenous in neonatal mouse cardiac fibroblasts)); experiment: condition: only cells pretreated with ginkgolic acid (GA, 10 μM), a SUMOylation inhibitor, before TGF-β1; proximity ligation; Duolink in situ PLA on fixed neonatal mouse cardiac fibroblasts pretreated with ginkgolic acid (10 μM, 1 h) before TGF-β1

## p53 (from UniProt P02340 1-390)
[1]
  binding: binds
[2]
  binding: binds
[3]
  binding: no binding
